Drug screen on melanoma cell lines: apoptosis marker

Compounds and concentrations:
palbociclib: CC(=O)c1c(C)c2cnc(Nc3ccc(N4CCNCC4)cn3)nc2n(C2CCCC2)c1=O at 0.2 µM
GSK0660: COC(=O)c1sccc1S(=O)(=O)Nc1ccc(Nc2ccccc2)cc1OC at 5 µM
SNS-032: CC(C)(C)c1cnc(CSc2cnc(NC(=O)C3CCNCC3)s2)o1 at 0.05 µM
darinaparsin: C[As](C)SC[C@H](NC(=O)CC[C@H](N)C(=O)O)C(=O)NCC(=O)O at 2 µM
AS-252424: O=C1NC(=O)/C(=C/c2ccc(-c3ccc(F)cc3O)o2)S1 at 5 µM
sorafenib: CNC(=O)c1cc(Oc2ccc(NC(=O)Nc3ccc(Cl)c(C(F)(F)F)c3)cc2)ccn1 at 2 µM
cisplatin: N.N.[Cl][Pt][Cl] at 8 µM
ZM336372: Cc1ccc(NC(=O)c2cccc(N(C)C)c2)cc1NC(=O)c1ccc(O)cc1 at 10 µM
GW441756: Cn1cc(/C=C2\C(=O)Nc3cccnc32)c2ccccc21 at 2 µM
stibogluconate: O=C(O)[C@@H]1[O][Sb](=[O])([O][Sb]2(=[O])[O][C@H]([C@H](O)CO)[C@H](O)[C@H](C(=O)O)[O]2)[O][C@H]([C@H](O)CO)[C@@H]1O (some centres unmarked) at 10 µM

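Human melanoma cells were exposed to a pair of drugs for 72 h in 1,536-well plates and read by automated microscopy after fixing and staining. Each value is the cleaved-PARP-positive fraction of nuclei relative to DMSO-treated wells, in %, so that 100 equals the control and higher values mean more apoptosis. Every drug was used at one fixed concentration, the higher of two screened. The file gives one value for each pair and line, without errors, so small differences may be noise. The marker varies much from line to line, for technical or biological reasons.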 An unselected part of the screen is shown.

For palbociclib + sorafenib the values were WM115: 75.2; UACC-62: 247; A101D: 171; RPMI-7951: 103; WM3526: 73.5.
For sorafenib + GW441756 the values were WM115: 20.9; UACC-62: 59.9; A101D: 102; RPMI-7951: 64.7; WM3526: 120.
For GSK0660 + darinaparsin the values were WM115: 177; UACC-62: 193; A101D: 53.7; RPMI-7951: 101; WM3526: 255.
For cisplatin + AS-252424 the values were WM115: 108; UACC-62: 206; A101D: 155; RPMI-7951: 199; WM3526: 74.7.
For sorafenib + stibogluconate the values were WM115: 306; UACC-62: 98.7; A101D: 165; RPMI-7951: 41.3; WM3526: 190.
For SNS-032 + stibogluconate the values were WM115: 321; UACC-62: 178; A101D: 107; RPMI-7951: 270; WM3526: 164.
For SNS-032 + GSK0660 the values were WM115: 202; UACC-62: 179; A101D: 115; RPMI-7951: 416; WM3526: 86.5.
For cisplatin + stibogluconate the values were WM115: 61.3; UACC-62: 96.0; A101D: 81.1; RPMI-7951: 90.0; WM3526: 105.
For darinaparsin + SNS-032 the values were WM115: 125; UACC-62: 201; A101D: 67.2; RPMI-7951: 212; WM3526: 363.
For cisplatin + sorafenib the values were WM115: 102; UACC-62: 113; A101D: 43.8; RPMI-7951: 158; WM3526: 175.
For ZM336372 + SNS-032 the values were WM115: 143; UACC-62: 205; A101D: 112; RPMI-7951: 670; WM3526: 184.
For GSK0660 + sorafenib the values were WM115: 177; UACC-62: 233; A101D: 116; RPMI-7951: 78.1; WM3526: 78.1.
For GW441756 + stibogluconate the values were WM115: 122; UACC-62: 73.7; A101D: 202; RPMI-7951: 128; WM3526: 82.6.
For SNS-032 + palbociclib the values were WM115: 188; UACC-62: 206; A101D: 144; RPMI-7951: 119; WM3526: 91.9.
For AS-252424 + ZM336372 the values were WM115: 103; UACC-62: 85.4; A101D: 77.8; RPMI-7951: 155; WM3526: 115.
For GSK0660 + GW441756 the values were WM115: 46.7; UACC-62: 97.9; A101D: 72.8; RPMI-7951: 37.7; WM3526: 111.
For GW441756 + ZM336372 the values were WM115: 97.6; UACC-62: 101; A101D: 181; RPMI-7951: 99.6; WM3526: 85.8.
For sorafenib + darinaparsin the values were WM115: 56.7; UACC-62: 335; A101D: 116; RPMI-7951: 167; WM3526: 184.
For darinaparsin + cisplatin the values were WM115: 129; UACC-62: 177; A101D: 82.7; RPMI-7951: 86.0; WM3526: 95.3.
For ZM336372 + sorafenib the values were WM115: 59.2; UACC-62: 158; A101D: 98.4; RPMI-7951: 139; WM3526: 86.3.
For GW441756 + palbociclib the values were WM115: 162; UACC-62: 262; A101D: 38.9; RPMI-7951: 78.0; WM3526: 198.
For cisplatin + ZM336372 the values were WM115: 121; UACC-62: 111; A101D: 118; RPMI-7951: 45.5; WM3526: 89.5.
For palbociclib + stibogluconate the values were WM115: 442; UACC-62: 205; A101D: 122; RPMI-7951: 91.5; WM3526: 112.
For SNS-032 + cisplatin the values were WM115: 88.8; UACC-62: 138; A101D: 148; RPMI-7951: 181; WM3526: 225.
For GW441756 + darinaparsin the values were WM115: 126; UACC-62: 243; A101D: 88.2; RPMI-7951: 79.3; WM3526: 61.3.
For GSK0660 + AS-252424 the values were WM115: 177; UACC-62: 114; A101D: 146; RPMI-7951: 66.7; WM3526: 108.
For cisplatin + GSK0660 the values were WM115: 337; UACC-62: 77.2; A101D: 185; RPMI-7951: 151; WM3526: 151.
For cisplatin + palbociclib the values were WM115: 154; UACC-62: 167; A101D: 362; RPMI-7951: 119; WM3526: 275.
For SNS-032 + AS-252424 the values were WM115: 126; UACC-62: 153; A101D: 83.9; RPMI-7951: 111; WM3526: 116.
For darinaparsin + palbociclib the values were WM115: 226; UACC-62: 192; A101D: 91.7; RPMI-7951: 119; WM3526: 207.
For ZM336372 + GSK0660 the values were WM115: 96.4; UACC-62: 36.3; A101D: 99.6; RPMI-7951: 83.8; WM3526: 87.0.
For AS-252424 + palbociclib the values were WM115: 418; UACC-62: 198; A101D: 236; RPMI-7951: 36.4; WM3526: 117.
For GSK0660 + palbociclib the values were WM115: 150; UACC-62: 283; A101D: 132; RPMI-7951: 140; WM3526: 144.
For darinaparsin + ZM336372 the values were WM115: 56.1; UACC-62: 76.6; A101D: 115; RPMI-7951: 123; WM3526: 154.
For palbociclib + ZM336372 the values were WM115: 581; UACC-62: 182; A101D: 240; RPMI-7951: 156; WM3526: 115.
For GW441756 + AS-252424 the values were WM115: 218; UACC-62: 56.2; A101D: 99.2; RPMI-7951: 69.2; WM3526: 166.
For SNS-032 + sorafenib the values were WM115: 207; UACC-62: 198; A101D: 245; RPMI-7951: 331; WM3526: 85.7.
For GSK0660 + stibogluconate the values were WM115: 86.0; UACC-62: 38.8; A101D: 64.7; RPMI-7951: 677; WM3526: 81.7.
For cisplatin + GW441756 the values were WM115: 102; UACC-62: 139; A101D: 197; RPMI-7951: 250; WM3526: 166.

Repeated from the top, 4 entries:

{"combination": "palbociclib + sorafenib", "WM115": 75.2, "UACC-62": 247, "A101D": 171, "RPMI-7951": 103, "WM3526": 73.5}
{"combination": "sorafenib + GW441756", "WM115": 20.9, "UACC-62": 59.9, "A101D": 102, "RPMI-7951": 64.7, "WM3526": 120}
{"combination": "GSK0660 + darinaparsin", "WM115": 177, "UACC-62": 193, "A101D": 53.7, "RPMI-7951": 101, "WM3526": 255}
{"combination": "cisplatin + AS-252424", "WM115": 108, "UACC-62": 206, "A101D": 155, "RPMI-7951": 199, "WM3526": 74.7}

Values as published with doi:10.1371/journal.pone.0140310, rounded.